Results from one PubChem assay

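Genome-wide siRNA knockdown in TC32 Ewing sarcoma cells, comparing luciferase light from an NR0B1-promoter reporter with a CMV-promoter reporter 48 hours after transfection.
Each siRNA was applied at 20 nM.
A z-score of the log NR0B1-over-CMV signal, less the median of siRNAs with the same seed; more negative means a stronger specific loss of the NR0B1 reporter.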

This is part of the screen; most of the strongest results are not listed here.
Sequences are the guide (antisense) strand, without overhang.

siRNA,target gene,seed-corrected z-score
UAACUUUCUCCGAAUCGUC,NOL4,0.07171
UCGAGUAUUAUUCUCAUCC,SCG2,0.1997
UUUGCGGAAAGAAUCGCCC,TSHZ2,-0.2224
UAAUCGUCAUCUUGCAAGG,ZFYVE26,-0.6328
UCAUUGACUGGUUCUAUGC,PGBD1,-0.4165
UCCUUGUCUAGGAAGGAGA,FBXL22,-1.027
UUCUGUACGGGCCUCUUGC,LENG1,0.04295
AAUUCAUAAAGAAGCCUCC,FXYD4,-0.3194
UCUGGAUCCUUUUCAACCC,ERBB2IP,-0.3931
UUUCCGAACCAUUUGUUCC,CNN3,-0.177
AUAUUGACCAGAAUACCUG,ATL3,0.4068
UAGGCUAUAGACAGCAUGG,TRPC5,0.3249
UUGUUGAACAGCUCGAUGC,ARFGEF2,2.574
UACUGUUAGAUAAUGCCUC,TACO1,0.01479
UUCACCUUUAAUGACCUUC,IL36RN,0.3798
UUCGUCUUCAUUGAGGAAG,FAM65A,-0.6606
AUGAUUGACAGUUAAAUUU,RPL22P11,-0.5438
UUCCUUGUGGAAUAUGACC,SLC26A7,-1.387
UCUGAUCUCAUGACUCAGC,MYOM3,0.00829
AAGAGGAAGAGGCCGUUGC,CLN6,-0.9864
UUUCUGUGAAUCUACUAGC,FAM103A1,-1.046
UGUGAGUCUCUGGAUAUUC,SAA2,0.1251
AUCGCAUACAAAAAUAGUC,GNPDA2,1.304
AAUGAAACCAAUACCUCCC,IMPDH1,-0.5875
UGUUCCAAACGCAAUAUCC,TDP1,-0.6061
UCUGAUCCAACCGCUUCUC,CFAP45,0.2406
ACAGUCCACAUAGAUGUCC,LOC200726,0.2248
UCUUGGUCAAAGGGAUUCC,DENND5A,-0.8965
UCCGUGUCAAGGGCUACCA,FAM219A,0.696
UAAGUAUACACGGAGUCAC,GCA,0.2256
UGGAGAAUCACGAUGUCGU,ELANE,-0.05372
UCUGUUACAGCUACCAGCC,SNU13,-0.188
AGAGGUUUGACAUAUACUG,GJB4,-1.829
UACGGCAACAGAUCAGCCU,IL32,0.5679
UCUUGGUACACGUGGUUCG,CST3,2.012
UUCUUGUAUUAAUUCACCC,LPIN2,1.647
UAAUCGGUCUUCAUCGUCG,ZNF831,0.1303
AGUCUGUCAAAGUCAUGCC,KCNJ12,-0.3625
UUUGGUAUUCCCAUACCGC,DEFB113,0.312
UUCCAGACCAUCUAUUACC,PPIL3,-0.1125
UGAGGUCGAAGAAUUCCUC,GPSM1,-0.9423
UCAACUUGCGGUCUCCUCC,BCL2L12,0.4838
UUCUGACCAAGAUAUCCUC,CYB5R2,0.674

Some entries from above, unchanged:

siRNA	target gene	seed-corrected z-score
UUCCUUGUGGAAUAUGACC	SLC26A7	-1.387
ACAGUCCACAUAGAUGUCC	LOC200726	0.2248
UCCUUGUCUAGGAAGGAGA	FBXL22	-1.027
UCAUUGACUGGUUCUAUGC	PGBD1	-0.4165
UUUGCGGAAAGAAUCGCCC	TSHZ2	-0.2224

From PubChem BioAssay record AID1159506 (NCATS, 2015).